Measurements as given in paper PMC10447241 (Nature, 2023).
Results are given in words; binding and its absence hold for the method and conditions named. In cells and extracts the contact can be indirect. Some entries that bind do so weakly or less than the wild type.

Chains of the proteins cited; added tags and fusions are not shown. Lines headed by an entry give the natural chain unless they say otherwise; changes in a name come on top. A line that says so, or that is headed by a name, gives the form on record, which may keep a tag or linker. Residues count along the entry.
wild-type GCGR with Rluc8 at the C terminus (P47871, residues 26-477): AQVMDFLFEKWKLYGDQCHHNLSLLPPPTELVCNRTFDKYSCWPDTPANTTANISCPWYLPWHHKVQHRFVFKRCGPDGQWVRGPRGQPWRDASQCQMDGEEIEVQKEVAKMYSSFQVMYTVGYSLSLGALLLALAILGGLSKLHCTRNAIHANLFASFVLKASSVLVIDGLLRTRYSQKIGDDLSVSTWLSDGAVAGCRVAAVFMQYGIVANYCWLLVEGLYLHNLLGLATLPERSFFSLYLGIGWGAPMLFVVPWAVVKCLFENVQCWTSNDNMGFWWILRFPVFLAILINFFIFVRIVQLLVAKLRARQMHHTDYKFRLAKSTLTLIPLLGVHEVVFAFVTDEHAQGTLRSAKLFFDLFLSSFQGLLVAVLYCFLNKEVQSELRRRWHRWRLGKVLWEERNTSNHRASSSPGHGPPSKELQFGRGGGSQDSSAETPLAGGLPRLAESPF
GCGR S167A with Rluc8 at the C terminus (P47871, form named): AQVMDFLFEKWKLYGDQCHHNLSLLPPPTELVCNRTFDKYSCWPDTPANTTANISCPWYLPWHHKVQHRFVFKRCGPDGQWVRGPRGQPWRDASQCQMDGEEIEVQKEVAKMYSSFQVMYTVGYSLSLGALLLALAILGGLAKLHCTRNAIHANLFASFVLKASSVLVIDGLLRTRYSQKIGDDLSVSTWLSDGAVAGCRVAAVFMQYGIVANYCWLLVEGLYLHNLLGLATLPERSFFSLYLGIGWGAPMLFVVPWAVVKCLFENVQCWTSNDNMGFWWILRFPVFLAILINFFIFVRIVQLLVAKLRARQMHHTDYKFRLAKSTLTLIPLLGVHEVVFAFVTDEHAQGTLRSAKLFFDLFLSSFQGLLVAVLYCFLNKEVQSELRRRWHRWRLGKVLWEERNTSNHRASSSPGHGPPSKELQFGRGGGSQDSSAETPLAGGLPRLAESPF
GCGR G165W with Rluc8 at the C terminus (P47871, form named): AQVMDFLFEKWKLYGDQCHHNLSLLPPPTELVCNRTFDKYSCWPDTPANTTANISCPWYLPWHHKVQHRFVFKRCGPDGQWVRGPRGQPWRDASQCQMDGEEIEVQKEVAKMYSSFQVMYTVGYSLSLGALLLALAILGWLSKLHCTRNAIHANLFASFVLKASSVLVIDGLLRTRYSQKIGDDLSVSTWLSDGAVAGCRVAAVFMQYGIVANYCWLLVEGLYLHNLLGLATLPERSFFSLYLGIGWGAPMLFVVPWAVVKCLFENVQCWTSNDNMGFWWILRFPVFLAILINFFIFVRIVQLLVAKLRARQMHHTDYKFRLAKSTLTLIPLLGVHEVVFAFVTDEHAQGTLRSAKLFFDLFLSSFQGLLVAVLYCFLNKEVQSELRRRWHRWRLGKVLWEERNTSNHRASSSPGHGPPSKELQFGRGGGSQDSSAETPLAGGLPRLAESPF
GCGR W425A with Rluc8 at the C terminus (P47871, form named): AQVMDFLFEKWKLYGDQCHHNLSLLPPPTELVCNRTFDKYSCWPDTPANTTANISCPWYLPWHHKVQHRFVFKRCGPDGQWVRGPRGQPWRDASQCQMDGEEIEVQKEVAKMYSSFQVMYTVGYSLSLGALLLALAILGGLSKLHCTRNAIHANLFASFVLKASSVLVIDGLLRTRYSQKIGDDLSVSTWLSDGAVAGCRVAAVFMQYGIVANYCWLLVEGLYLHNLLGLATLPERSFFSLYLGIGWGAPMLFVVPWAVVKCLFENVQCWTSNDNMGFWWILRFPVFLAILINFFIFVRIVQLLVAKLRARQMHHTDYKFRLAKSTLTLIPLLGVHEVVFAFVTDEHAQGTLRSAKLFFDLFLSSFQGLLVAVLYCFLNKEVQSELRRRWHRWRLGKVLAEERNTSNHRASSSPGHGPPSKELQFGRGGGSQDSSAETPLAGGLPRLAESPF
UniProt P49407: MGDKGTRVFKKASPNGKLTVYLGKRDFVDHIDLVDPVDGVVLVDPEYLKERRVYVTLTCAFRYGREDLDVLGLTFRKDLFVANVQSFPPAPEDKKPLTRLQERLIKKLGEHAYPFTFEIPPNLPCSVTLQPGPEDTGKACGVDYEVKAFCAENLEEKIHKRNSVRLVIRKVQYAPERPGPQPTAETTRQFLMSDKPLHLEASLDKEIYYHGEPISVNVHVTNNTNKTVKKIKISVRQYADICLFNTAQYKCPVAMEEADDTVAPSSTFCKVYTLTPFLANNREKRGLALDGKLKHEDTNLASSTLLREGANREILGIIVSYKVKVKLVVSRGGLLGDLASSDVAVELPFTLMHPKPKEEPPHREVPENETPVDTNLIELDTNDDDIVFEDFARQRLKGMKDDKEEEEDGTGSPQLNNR

Key:
Assay in all cases: FRET or BRET; GCGR–Rluc8 (or mutants) and βarr1–GFP2 (or mutants) co-transfected 1:1 in HEK293F cells; glucagon 1 pM to 10 μM; HBSS, 20 mM HEPES pH 7.4; coelenterazine 400a; EC50 is that of glucagon in inducing the BRET signal
[1] = biological target: GCGR S167A with Rluc8 at the C terminus (human) (UniProt P47871)
[2] = biological target: wild-type GCGR with Rluc8 at the C terminus (human) (UniProt P47871)
[3] = biological target: GCGR G165W with Rluc8 at the C terminus (human) (UniProt P47871)
[4] = biological target: GCGR W425A with Rluc8 at the C terminus (human) (UniProt P47871)

binding [1]	binding [2]	binding [3]	binding [4]	Substance
binds	binds	binds	binds weakly	human βarr1 with GFP2 at the C terminus (from UniProt P49407 1-418)
	binds weakly			βarr1 R285A with GFP2 at the C terminus (from UniProt P49407 1-418)
